Assay results: PubChem BioAssay AID488908 (National Center for Advancing Translational Sciences (NCATS), 2010)
The inconclusive results got no clear call from the source; some entries with a clear call stand among them for comparison. A potency beside an inconclusive call is a rough fit, not a confirmed value. The source made the active and inactive calls. Calls come from the whole dose curve; as a rule, active = well fitted inhibition curve with a large enough effect; inconclusive = small, poorly fitted or top-dose-only effect; inactive = flat fitted curve, though single readings scatter.

assay: Secondary Assay for lipid storage modulators: Cytotoxcity for probe SAR; conditions: Drosophila S3 cells viability, CellTiter-Glo luminescence, 24 h, with oleic acid added (1 µL, 400 µM); series mostly up to 46.1 µM
From the text: NIH Molecular Libraries Probe Production Centers Network [MLPCN] NIH Chemical Genomics Center [NCGC] MLPCN Grant: 1 R03 MH085686-01 Assay Submitter (PI): Beller, Mathias; Max-Planck-Institut fur Biophysikalische Chemie, Germany. NCGC Assay Overview: Storing lipids as a reservoir for energy or the anabolism of elementary metabolites is a common feature of probably all cells and is conserved from bacteria to humans. The universal cellular lipid storage organelle is the so-called lipid storage droplet (LD). Although ubiquitous, LDs share a simple structure composed of a hydrophobic core that harbors the storage lipids, which is shielded by a droplet-specific phospholipid monolayer to which proteins are attached. The current model of LD biogenesis involves an incorporation of the lipid core into the membrane leaflets of the endoplasmic reticulum (ER) followed by a subsequent budding-like maturation of a LD, which ultimately pinches off. Once released, LD volume can increase by localized lipogenesis or fusion of existing droplet. Storage lipids are re-mobilized enzymatically by lipase activity. Lipase regulation in the adipocyte is heavily studied and involves multiple components including catecholamine signaling, the LD-associated proteins Perilipin and comparative gene identification (CGI-58) and at least two lipases named hormone sensitive lipase (HSL) and adipocyte triglyceride lipase (ATGL). LD regulation outside of the adipocyte is poorly understood and only few components are known. However, there is an urgent need to learn more about ectopic fat depots as mislocalized storage of lipids, for example in the liver or muscle, is an eminent health problem associated with insulin resistance or the metabolic syndrome. We developed a laser-scanning cytometer assay to enable 1,536-well screening and combined the results of the small molecules screen with an RNAi database based on lipid storage. The compound was tested here for cytotoxcity using CellTiter-Glo.
Assay Protocol Summary: Cytotoxcity assay was performed with embryonic Drosophila S3 cells (Bloomington Drosophila Genomics Resource Center [DGRC]). We dispensed 4 uL of cells at 1.25 x 10^6 cells/mL into Greiner solid white 1,536-well plates with a bottle-valve solenoid-based dispenser (Aurora) to obtain 5,000 cells/well. A total of 23 nL of compound solution of different concentrations were transferred to the assay plates using a Kalypsys pin tool equipped with a 1,536-pin array containing 10-nL slotted pins (FP1S10, 0.457-mm diameter, 50.8 mm long; V&P Scientific). One microliter of oleic acid (400 uM) was added, and the plate was lidded with stainless steel rubber gasket lined lids containing pinholes. After 24 hrs of incubation at 24 degrees Celsius and 95% humidity, 4 uL of CellTiter-Glo (Promega) was added to the wells. Luminescence was detected on the Perkin Elmer ViewLux.

SMILES | Potency
COc1ccc(-c2cnc(SCC(=O)Nc3nc(C)cs3)n2-c2ccccc2)cc1 | inconclusive: 17.7 µM [falling, partial curve]
CCOc1ccc(CCNC(=O)c2cc3sc(CC)cc3n2C)cc1OCC | inconclusive: 19.9 µM [falling, partial curve, poor fit]
O=C(NC1CCCc2c1cnn2-c1ccc(F)cc1F)c1ccc[n+]([O-])c1 (stereo not given) | inconclusive: 14.1 µM [falling, partial curve]
CC(C)(C)OC(=O)NC1CCCc2c1cnn2-c1ccc(F)cc1F (stereo not given) | active: 9.96 µM
CCOc1ccc(CCNC(=O)c2cc3sccc3n2Cc2ccccc2)cc1OCC | inconclusive: 17.7 µM [falling, partial curve, poor fit]
CCOc1ccc(CCNC(=O)c2cc3sccc3n2CCc2ccccc2)cc1OCC | inconclusive: 14.1 µM [falling, partial curve]
O=C(NC1CCCc2c1cnn2-c1cc(F)cc(F)c1)c1ccc(F)cc1Cl (stereo not given) | inconclusive: 11.2 µM [falling, partial curve]
Cc1ccc(-c2cnc(SCC(=O)Nc3nccs3)n2Cc2ccco2)cc1 | inactive
CCOC(=O)C1CCCN(C(=O)C2(NC(=O)Nc3ccc(F)cc3F)CCCCC2)C1 (stereo not given) | inactive
CCOc1ccc(CCNC(=O)C2=C(C)OCCO2)cc1OCC | inactive
CCOC(=O)C1CCN(C(=O)C(C)(C)NC(=O)Nc2ccccc2Cl)CC1 | inactive
O=C(NC1CCCc2c1cnn2-c1cc(F)cc(F)c1)c1cccc2nccnc12 (stereo not given) | inactive
CCOc1ccc(CCNC(=O)c2cc3sccc3n2Cc2ccc(OC(F)F)cc2)cc1OCC | inconclusive: 17.7 µM [falling, partial curve, poor fit]
CCOC(=O)C1CCN(C(=O)C2(NC(=O)Nc3ccccc3Cl)CCCCC2)CC1 | inactive
CCOc1ccc(CCNC(=O)c2cc3sccc3n2CC)cc1OCC | inconclusive: 1.58 µM [falling, full curve]
O=C(Nc1cccc2nn(-c3ccc(F)cc3)cc12)c1ccccn1 | active: 12.5 µM
Cc1ccc(-c2nc(NC(=O)Cc3cccs3)sc2C)cc1 | inconclusive: 31.5 µM [falling, partial curve]
Cc1cn(-c2cc(NC(=O)c3ccc(C)c(Nc4nccc(-c5cccnc5)n4)c3)cc(C(F)(F)F)c2)cn1 | inactive
O=C(NC1CCCc2c1cnn2-c1ccc(F)cc1F)C1CCCCC1 (stereo not given) | active: 0.791 µM
Cc1cc2c(cc1C1(c3ccc(C(=O)O)cc3)CC1)C(C)(C)CCC2(C)C | inconclusive: 31.5 µM [falling, partial curve]

SMILES | Potency
CC(C)(C)OC(=O)N1CCCCC1C(=O)NC1CCCc2c1cnn2-c1ccc(F)cc1F (stereo not given) | inconclusive: 19.9 µM [falling, partial curve]
CCOc1ccc(CCNC(=O)c2cc3sccc3n2C)cc1OCC | inconclusive: 15.8 µM [falling, partial curve]
O=C(Cc1cccs1)Nc1nc(-c2ccc(F)cc2)cs1 | inactive
O=C(Nc1ccccc1-c1cn2c(CN3CCNCC3)csc2n1)c1cnc2ccccc2n1 | inconclusive: 35.3 µM [falling, single point]
CCOc1ccc(CCNC(=O)c2cc3ccccc3o2)cc1OCC | inconclusive: 25 µM [falling, single point]
O=C(NC1CCCc2c1cnn2-c1ccc(F)cc1F)c1ccn[nH]1 (stereo not given) | inconclusive: 14.1 µM [falling, partial curve]
CC(NCc1ccc2c(c1)nc(NC(=O)c1ccc(-c3cn[nH]c3)s1)n2CC(C)(C)O)C(C)(C)C (stereo not given) | inconclusive: 15.8 µM [activator, partial curve]
O=C(NC1CCCc2c1cnn2-c1ccccc1F)c1cccc2nccnc12 (stereo not given) | inconclusive: 24.4 µM [falling, single point]
O=C(NC1CCCc2c1cnn2-c1ccc(F)cc1F)c1cnsn1 (stereo not given) | inconclusive: 14.1 µM [falling, partial curve]
Cc1ccc(-n2ncc3c2CCCC3NC(=O)c2c(F)cccc2F)cc1C (stereo not given) | inconclusive: 12.5 µM [falling, partial curve]
COc1ccccc1NC(=S)N1CCN(c2cc(Cl)ccc2C)CC1 | inactive
Cc1sc(NC(=O)Cc2cccs2)nc1-c1ccccc1 | inactive
CCOc1ccc(CCNC(=O)c2cc3c(s2)CCC3)cc1OCC | inconclusive: 17.7 µM [falling, partial curve]
CCOc1ccc(CCNC(=O)c2cc3sccc3[nH]2)cc1OCC | inconclusive: 15.8 µM [falling, partial curve]
O=C(NC1CCCc2c1cnn2-c1ccc(F)cc1F)c1ccc2cc[nH]c2c1 (stereo not given) | active: 22.3 µM
CCOc1ccc(CCNC(=O)c2cc3sccc3n2Cc2cccnc2)cc1OCC | inconclusive: 14.1 µM [falling, partial curve]
CCOc1ccc(CCNC(=O)c2ccc(C3(C(F)(F)F)N=N3)cc2)cc1OCC | inactive
CCOc1ccc(CCNC(=O)c2cc3sccc3n2C)cc1 | inconclusive: 14.1 µM [falling, partial curve]
O=C(NC1CCCc2c1cnn2-c1ccc(F)cc1F)c1cnccn1 (stereo not given) | active: 3.97 µM
COc1ccc(-c2csc(NC(=O)Cc3cccs3)n2)cc1 | inconclusive: 28.1 µM [falling, single point]

By substructure, the compounds so far with a tert-butyl group.
SMILES | Potency
CC(C)(C)OC(=O)NC1CCCc2c1cnn2-c1ccc(F)cc1F (stereo not given) | active: 9.96 µM
CC(C)(C)OC(=O)N1CCCCC1C(=O)NC1CCCc2c1cnn2-c1ccc(F)cc1F (stereo not given) | inconclusive: 19.9 µM [falling, partial curve]
CC(NCc1ccc2c(c1)nc(NC(=O)c1ccc(-c3cn[nH]c3)s1)n2CC(C)(C)O)C(C)(C)C (stereo not given) | inconclusive: 15.8 µM [activator, partial curve]
